Test results published in article PMC12514153.
These are yes or no findings as the source states them, for the method shown. Binding seen in cells or lysates may run through a third protein. Some entries that bind do so weakly or less than the wild type.

Chains of the proteins cited; added tags and fusions are not shown.
UniProt P05787: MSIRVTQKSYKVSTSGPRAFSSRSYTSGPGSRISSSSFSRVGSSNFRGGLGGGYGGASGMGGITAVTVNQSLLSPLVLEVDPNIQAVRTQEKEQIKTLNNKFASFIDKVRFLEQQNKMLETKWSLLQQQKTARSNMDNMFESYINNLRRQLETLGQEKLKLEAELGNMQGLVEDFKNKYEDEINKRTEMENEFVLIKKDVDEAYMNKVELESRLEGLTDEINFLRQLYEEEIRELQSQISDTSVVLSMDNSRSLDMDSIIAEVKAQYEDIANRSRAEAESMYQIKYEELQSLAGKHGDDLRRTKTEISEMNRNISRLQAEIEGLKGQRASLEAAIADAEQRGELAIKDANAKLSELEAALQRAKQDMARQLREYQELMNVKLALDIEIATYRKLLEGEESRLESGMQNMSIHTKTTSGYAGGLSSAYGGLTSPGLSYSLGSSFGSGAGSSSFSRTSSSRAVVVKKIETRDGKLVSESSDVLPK
UniProt P08727: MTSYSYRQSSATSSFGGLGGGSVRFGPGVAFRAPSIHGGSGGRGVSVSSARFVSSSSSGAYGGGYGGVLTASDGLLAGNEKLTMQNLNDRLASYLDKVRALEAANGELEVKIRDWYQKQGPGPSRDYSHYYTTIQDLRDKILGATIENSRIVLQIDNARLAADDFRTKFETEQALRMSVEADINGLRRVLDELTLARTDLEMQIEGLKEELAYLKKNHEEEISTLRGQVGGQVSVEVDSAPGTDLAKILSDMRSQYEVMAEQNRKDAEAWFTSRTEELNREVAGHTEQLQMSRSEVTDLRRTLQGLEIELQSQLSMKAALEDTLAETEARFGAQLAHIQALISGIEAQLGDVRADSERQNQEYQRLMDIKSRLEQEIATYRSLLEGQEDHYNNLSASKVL
UniProt P15924: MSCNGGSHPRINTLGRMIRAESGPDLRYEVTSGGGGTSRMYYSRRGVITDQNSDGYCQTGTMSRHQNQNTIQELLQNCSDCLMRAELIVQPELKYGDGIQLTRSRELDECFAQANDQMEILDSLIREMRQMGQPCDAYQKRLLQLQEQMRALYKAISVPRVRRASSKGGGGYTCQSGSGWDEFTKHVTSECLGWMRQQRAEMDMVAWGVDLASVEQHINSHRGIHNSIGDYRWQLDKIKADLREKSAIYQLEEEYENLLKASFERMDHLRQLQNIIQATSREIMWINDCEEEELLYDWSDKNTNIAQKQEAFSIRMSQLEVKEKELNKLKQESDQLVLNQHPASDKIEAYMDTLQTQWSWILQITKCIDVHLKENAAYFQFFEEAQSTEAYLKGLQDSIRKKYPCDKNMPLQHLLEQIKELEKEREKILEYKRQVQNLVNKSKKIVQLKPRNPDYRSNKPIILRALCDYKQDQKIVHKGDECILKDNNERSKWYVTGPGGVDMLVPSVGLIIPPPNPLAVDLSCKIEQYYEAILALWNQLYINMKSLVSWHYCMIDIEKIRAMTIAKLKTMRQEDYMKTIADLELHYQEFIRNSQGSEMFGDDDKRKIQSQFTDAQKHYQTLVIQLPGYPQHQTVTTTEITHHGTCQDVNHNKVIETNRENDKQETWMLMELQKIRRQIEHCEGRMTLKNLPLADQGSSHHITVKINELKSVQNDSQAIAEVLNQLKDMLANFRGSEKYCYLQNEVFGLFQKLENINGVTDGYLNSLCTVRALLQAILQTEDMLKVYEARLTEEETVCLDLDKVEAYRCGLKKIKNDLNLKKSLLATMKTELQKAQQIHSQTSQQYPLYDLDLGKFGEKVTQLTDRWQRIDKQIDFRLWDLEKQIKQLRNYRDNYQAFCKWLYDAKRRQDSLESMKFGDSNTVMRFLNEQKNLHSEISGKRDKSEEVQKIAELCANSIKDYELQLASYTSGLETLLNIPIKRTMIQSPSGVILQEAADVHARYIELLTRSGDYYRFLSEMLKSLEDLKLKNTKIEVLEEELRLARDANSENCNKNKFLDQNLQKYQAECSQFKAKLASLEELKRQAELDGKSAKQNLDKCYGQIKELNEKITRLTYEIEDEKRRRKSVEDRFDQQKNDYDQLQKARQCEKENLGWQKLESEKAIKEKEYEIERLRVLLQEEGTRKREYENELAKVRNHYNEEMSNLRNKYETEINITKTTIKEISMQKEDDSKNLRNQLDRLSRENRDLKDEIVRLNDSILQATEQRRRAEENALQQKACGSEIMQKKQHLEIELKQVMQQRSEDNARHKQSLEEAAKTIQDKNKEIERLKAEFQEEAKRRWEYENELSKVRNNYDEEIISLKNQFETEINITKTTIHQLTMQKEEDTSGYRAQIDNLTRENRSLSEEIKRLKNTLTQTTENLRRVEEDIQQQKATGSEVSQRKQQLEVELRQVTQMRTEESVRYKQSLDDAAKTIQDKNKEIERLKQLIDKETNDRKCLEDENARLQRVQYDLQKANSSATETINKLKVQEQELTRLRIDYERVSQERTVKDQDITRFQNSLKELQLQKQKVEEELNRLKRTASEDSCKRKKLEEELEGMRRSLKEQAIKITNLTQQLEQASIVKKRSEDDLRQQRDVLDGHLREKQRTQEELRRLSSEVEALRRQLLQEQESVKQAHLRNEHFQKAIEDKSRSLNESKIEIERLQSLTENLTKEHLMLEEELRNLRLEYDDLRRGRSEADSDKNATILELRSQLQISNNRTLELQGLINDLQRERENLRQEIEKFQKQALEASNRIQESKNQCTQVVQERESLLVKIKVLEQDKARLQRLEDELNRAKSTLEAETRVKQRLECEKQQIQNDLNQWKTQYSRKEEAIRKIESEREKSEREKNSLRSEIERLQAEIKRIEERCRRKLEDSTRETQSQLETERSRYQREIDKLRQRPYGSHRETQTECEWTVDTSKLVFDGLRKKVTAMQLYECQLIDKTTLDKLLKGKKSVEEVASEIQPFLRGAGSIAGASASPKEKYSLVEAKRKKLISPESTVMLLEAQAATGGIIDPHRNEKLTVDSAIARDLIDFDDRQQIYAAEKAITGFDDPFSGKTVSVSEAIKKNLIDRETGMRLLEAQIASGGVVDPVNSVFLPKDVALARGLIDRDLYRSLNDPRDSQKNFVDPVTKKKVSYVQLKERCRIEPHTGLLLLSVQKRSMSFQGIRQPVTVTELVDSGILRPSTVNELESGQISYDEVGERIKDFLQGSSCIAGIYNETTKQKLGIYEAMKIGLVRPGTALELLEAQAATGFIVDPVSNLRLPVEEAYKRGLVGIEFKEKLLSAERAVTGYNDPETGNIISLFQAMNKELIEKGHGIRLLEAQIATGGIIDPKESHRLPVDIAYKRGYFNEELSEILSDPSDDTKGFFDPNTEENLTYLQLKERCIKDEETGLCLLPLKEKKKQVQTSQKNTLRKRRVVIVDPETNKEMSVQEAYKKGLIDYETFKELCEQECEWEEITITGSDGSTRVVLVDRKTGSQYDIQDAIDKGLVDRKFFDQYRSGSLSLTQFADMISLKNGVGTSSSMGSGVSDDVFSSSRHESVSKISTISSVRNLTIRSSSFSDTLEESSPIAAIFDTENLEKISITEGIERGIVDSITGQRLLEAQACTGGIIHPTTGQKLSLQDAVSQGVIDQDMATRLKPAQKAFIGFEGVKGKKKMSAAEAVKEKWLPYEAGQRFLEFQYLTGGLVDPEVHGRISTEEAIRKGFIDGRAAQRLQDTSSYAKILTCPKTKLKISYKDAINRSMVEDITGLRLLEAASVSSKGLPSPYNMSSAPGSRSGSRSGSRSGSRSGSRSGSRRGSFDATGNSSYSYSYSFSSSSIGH

T1: Keratin-18 (human (endogenous in MCF7)) (UniProt P05783)
T1 sequence: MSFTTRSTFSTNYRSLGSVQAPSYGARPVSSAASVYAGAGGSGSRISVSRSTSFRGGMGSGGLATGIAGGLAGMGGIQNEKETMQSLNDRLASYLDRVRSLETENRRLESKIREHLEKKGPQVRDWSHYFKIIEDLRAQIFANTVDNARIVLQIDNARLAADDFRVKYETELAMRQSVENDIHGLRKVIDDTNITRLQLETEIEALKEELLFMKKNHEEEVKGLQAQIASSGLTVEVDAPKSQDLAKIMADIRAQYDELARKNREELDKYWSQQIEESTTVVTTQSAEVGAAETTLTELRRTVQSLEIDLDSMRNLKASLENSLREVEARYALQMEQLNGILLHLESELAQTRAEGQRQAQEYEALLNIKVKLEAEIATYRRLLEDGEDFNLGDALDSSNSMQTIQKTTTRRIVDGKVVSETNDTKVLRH


Assays:
[1] = target: T1, Keratin-18 (human (endogenous in MCF7)); assay: co-IP; MCF7 WT and K19-KO cell lysates in 1% Triton X-100 lysis buffer, anti-K8 or anti-K18 antibody or IgG control for 2 h at 4 °C, Protein G Plus-Agarose beads, washed 4X with lysis buffer supplemented with 300 mM NaCl; immunoblot
[2] = target: Keratin-8 (human (endogenous in MCF7)) (UniProt P05787); assay: as above
[3] = target: keratin 19 (human (endogenous in MCF7)) (UniProt P08727); assay: co-IP; MCF7 WT cell lysate in 1% Triton X-100 lysis buffer (40 mM HEPES pH 7.5, 120 mM NaCl, 1 mM EDTA), anti-K19 antibody or IgG control for 2 h at 4 °C, Protein G Plus-Agarose beads, washed 4X with lysis buffer supplemented with 300 mM NaCl; immunoblot; K19-KO cells as control

binding [1]	binding [2]	binding [3]	Molecule
binds	binds	binds	desmoplakin (from UniProt P15924 1-2871)
		binds	plakophilin-3 (protein, UniProt Q9Y446 1-797) MQDGNFLLSALQPEAGVCSLALPSDLQLDRRGAEGPEAERLRAARVQEQVRARLLQLGQQPRHNGAAEPEPEAETARGTSRGQYHTLQAGFSSRSQGLSGDKTSGFRPIAKPAYSPASWSSRSAVDLSCSRRLSSAHNGGSAFGAAGYGGAQPTPPMPTRPVSFHERGGVGSRADYDTLSLRSLRLGPGGLDDRYSLVSEQLEPAATSTYRAFAYERQASSSSSRAGGLDWPEATEVSPSRTIRAPAVRTLQRFQSSHRSRGVGGAVPGAVLEPVARAPSVRSLSLSLADSGHLPDVHGFNSYGSHRTLQRLSSGFDDIDLPSAVKYLMASDPNLQVLGAAYIQHKCYSDAAAKKQARSLQAVPRLVKLFNHANQEVQRHATGAMRNLIYDNADNKLALVEENGIFELLRTLREQDDELRKNVTGILWNLSSSDHLKDRLARDTLEQLTDLVLSPLSGAGGPPLIQQNASEAEIFYNATGFLRNLSSASQATRQKMRECHGLVDALVTSINHALDAGKCEDKSVENAVCVLRNLSYRLYDEMPPSALQRLEGRGRRDLAGAPPGEVVGCFTPQSRRLRELPLAADALTFAEVSKDPKGLEWLWSPQIVGLYNRLLQRCELNRHTTEAAAGALQNITAGDRRWAGVLSRLALEQERILNPLLDRVRTADHHQLRSLTGLIRNLSRNARNKDEMSTKVVSHLIEKLPGSVGEKSPPAEVLVNIIAVLNNLVVASPIAARDLLYFDGLRKLIFIKKKRDSPDSEKSSRAASSLLANLWQYNKLHRDFRAKGYRKEDFLGP
